Measurements reported in PubChem BioAssay AID493246 (Drosophila RNAi Screening Center, 2011).
Screen: 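Genes fly cells need to grow and stay alive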 (primary screen). Cell system: Drosophila Kc and S2R+ cells. Reagents: long dsRNA against Drosophila genes. Measurement: 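Raw, unnormalised count of remaining cells in each well; per-plate z-scores of cell number underlie the calls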. Scale: Kc cell number and S2R+ cell number: higher = more cells remaining. Active means: 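Counted as a hit if cell number falls by a z-score of at least 3 within its plate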.
In all, the deposit lists about 21,000 reagents; shown is a random part of those with a known target gene and a result. Of all reagents, 429 (2%) were called active. 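Values are raw and not normalised between plates; calls rest on per-plate z-scores that were not deposited.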 Not stated in the record: the amount of reagent, the time to read-out.

The first 2 entries as a preview:
CG14883 (GeneID 41997) [DRSC15007]
- Kc cell number, rep 1: 1.45e6
- Kc cell number, rep 2: 1.56e6
- S2R+ cell number, rep 1: 1.02e6
- S2R+ cell number, rep 2: 1.13e6
- outcome: inactive

CG7304 (GeneID 39713) [DRSC10804]
- Kc cell number, rep 1: 1.26e6
- Kc cell number, rep 2: 1.41e6
- S2R+ cell number, rep 1: 1.29e6
- S2R+ cell number, rep 2: 1.36e6
- outcome: inactive

The list itself, from the first entry:
CG14883 (GeneID 41997) [DRSC15007]
- Kc cell number, rep 1: 1.45e6
- Kc cell number, rep 2: 1.56e6
- S2R+ cell number, rep 1: 1.02e6
- S2R+ cell number, rep 2: 1.13e6
- outcome: inactive

CG7304 (GeneID 39713) [DRSC10804]
- Kc cell number, rep 1: 1.26e6
- Kc cell number, rep 2: 1.41e6
- S2R+ cell number, rep 1: 1.29e6
- S2R+ cell number, rep 2: 1.36e6
- outcome: inactive

CG13186 (GeneID 36294) [DRSC06311]
- Kc cell number, rep 1: 1.56e6
- Kc cell number, rep 2: 1.61e6
- S2R+ cell number, rep 1: 1.18e6
- S2R+ cell number, rep 2: 1.31e6
- outcome: inactive

Tif-IA (GeneID 35454) [DRSC03717]
- Kc cell number, rep 1: 1.28e6
- Kc cell number, rep 2: 1.35e6
- S2R+ cell number, rep 1: 1.06e6
- S2R+ cell number, rep 2: 1.11e6
- outcome: inactive

Tif-IA (GeneID 35454) [DRSC03726]
- Kc cell number, rep 1: 1.65e6
- Kc cell number, rep 2: 1.71e6
- S2R+ cell number, rep 1: 1.15e6
- S2R+ cell number, rep 2: 2.19e5
- outcome: inactive

U2A (GeneID 35713) [DRSC06445]
- Kc cell number, rep 1: 1.61e6
- Kc cell number, rep 2: 1.66e6
- S2R+ cell number, rep 1: 1.03e6
- S2R+ cell number, rep 2: 1.15e6
- outcome: inactive

Herc4 (GeneID 38151) [DRSC08631]
- Kc cell number, rep 1: 1.71e6
- Kc cell number, rep 2: 1.65e6
- S2R+ cell number, rep 1: 1.01e6
- S2R+ cell number, rep 2: 1.44e6
- outcome: inactive

CG13896 (GeneID 38089) [DRSC08366]
- Kc cell number, rep 1: 1.21e6
- Kc cell number, rep 2: 1.47e6
- S2R+ cell number, rep 1: 1.12e6
- S2R+ cell number, rep 2: 1.50e6
- outcome: inactive

CG30375 (GeneID 246575) [DRSC06834]
- Kc cell number, rep 1: 1.59e6
- Kc cell number, rep 2: 1.66e6
- S2R+ cell number, rep 1: 1.23e6
- S2R+ cell number, rep 2: 1.38e6
- outcome: inactive

CG9799 (GeneID 41647) [DRSC16567]
- Kc cell number, rep 1: 1.46e6
- Kc cell number, rep 2: 1.68e6
- S2R+ cell number, rep 1: 1.27e6
- S2R+ cell number, rep 2: 1.39e6
- outcome: inactive

app (GeneID 39399) [DRSC09159]
- Kc cell number, rep 1: 1.46e6
- Kc cell number, rep 2: 1.58e6
- S2R+ cell number, rep 1: 1.12e6
- S2R+ cell number, rep 2: 1.31e6
- outcome: inactive

app (GeneID 39399) [DRSC10246]
- Kc cell number, rep 1: 1.58e6
- Kc cell number, rep 2: 1.72e6
- S2R+ cell number, rep 1: 1.42e6
- S2R+ cell number, rep 2: 1.48e6
- outcome: inactive

app (GeneID 39399) [DRSC10526]
- Kc cell number, rep 1: 1.55e6
- Kc cell number, rep 2: 1.91e6
- S2R+ cell number, rep 1: 1.30e6
- S2R+ cell number, rep 2: 1.41e6
- outcome: inactive

CG7386 (GeneID 38719) [DRSC10832]
- Kc cell number, rep 1: 1.33e6
- Kc cell number, rep 2: 1.26e6
- S2R+ cell number, rep 1: 1.19e6
- S2R+ cell number, rep 2: 1.18e6
- outcome: inactive
